According to patent US10231463B2, “Food mass suitable for microwaving” (Chemische Fabrik Budenheim KG, priority 2013, dated 2019):

How the values were obtained:
[1] = Thawing and baking trials with yeast-raised wheat frozen doughs in a microwave oven; details: 2 parts by weight additive; deep-frozen 200 g dough piece; 600 watts, 120 seconds; 2 minutes standing time; infrared sensor
Experimental: Dough Composition (Basic Recipe):
In addition 2 parts by weight of microwave absorber were added to the basic recipe.
• Mixing and kneading time: 3+2 minutes (the latter in a Stephan mixer) • Dough standing time: 20 minutes • Dough piece weight: 200 g • Cooking time of the dough pieces: 20 minutes • Freezing time: about 4 hours • Deep freeze storage time: about 2 days Thawing and Baking Trials:
The deep-frozen dough pieces were exposed to microwave radiation in a microwave oven from Panasonic (model: NN-GD560M—inverter microwave) for a predetermined period of 120 seconds and with a predetermined microwave power of 600 watts (according to the device indication). After 2 minutes of standing time the temperature of the crust and the crumb was measured by means of an infrared temperature sensor at various measurement points on the dough piece.
Measurement value 1 (M1)=average crust temperature outside
Measurement value 2 (M2)=average crumb temperature in the interior of the dough piece.

[2] = Thawing and baking trials with puff pastry in a microwave oven; details: 2 parts by weight additive, 30 minutes standing time, thermal imaging camera; for M1 (averaged crust temperature outside): deep-frozen puff pastry dough pieces (PPD-RO 440 watts, 200 seconds or PPD-HP 600 watts, 300 seconds; table does not say which); for M2 (averaged crumb temperature in the interior of the dough piece): deep-frozen puff pastry dough pieces (PPD-RO or PPD-HP not stated)
Experimental: A puff pastry from Veripan was used as the basic recipe.
2 parts by weight of microwave absorber were further added to the basic recipe.
Wheat flour, inverted sugar, emulsifier and optionally microwave absorber were put into a mixing container and mixed. The water and 20% of the vegetable fat were added and kneaded for 3 minutes at a low stage and for 5 minutes at a medium stage with a spiral kneader. The dough temperature was monitored. The target temperature was 18° C. After that the remaining vegetable fat was beaten into the dough. The dough was then folded at intervals each of 30 minutes in 4 working steps, more specifically 2 single and 2 double turns. They give by calculation 144 fat layers (margarine), divided into very thin dough and fat layers. Before processing the dough was stored in a cooled condition for 12 hours.
Unbaked puff pastry dough roundels without filling and pre-baked puff pastry dough pockets (hot pockets) with a tomato sauce filling were respectively subjected to microwave radiation as deep-frozen dough pieces in a microwave oven from Panasonic (see Example 2) for a predetermined period and with a predetermined microwave power. After a […] standing time the temperature of the dough piece was measured by means of a thermal imaging camera (Fluke Ti20) and evaluated.
Measurement value 1 (M1)=averaged crust temperature outside
Measurement value 2 (M2)=averaged crumb temperature in the interior of the dough piece.
Puff pastry dough roundel (PPD-RO): 440 watts; 200 seconds
Puff pastry dough hot pockets (PPD-HP): 600 watts; 300 seconds
Table 3 hereinafter reproduces the additives used, the temperature measurement values M1 and M2 and the corresponding temperature difference (ΔT) between crust temperature and crumb temperature of the dough piece.
Assessment of Microwave Activity in Puff Pastry Doughs 1: ΔT=>20° C.=very good 2: ΔT=15 to <20° C.=good 3: ΔT=<15° C.=no additional additive

Compound | M1 (average crust temperature outside) [1] | M2 (average crumb temperature in the interior of the dough piece) [1] | M1 (averaged crust temperature outside) [2] | M2 (averaged crumb temperature in the interior of the dough piece) [2]
Calcium gluconate [CaGl] | 77.1 °C | 40.5 °C |  | 
O=P([O-])(O)OP(=O)([O-])O.[Ca+2] [CAPP, Acid calcium pyrophosphate] |  |  | 102.0 °C | 75.5 °C
O=P([O-])([O-])OP(=O)([O-])[O-].[Mg+2].[Mg+2] [MgPP, Magnesium pyrophosphate] |  |  | 92.9 °C | 77.7 °C
O=P([O-])([O-])OP(=O)([O-])[O-].O=P([O-])([O-])OP(=O)([O-])[O-].O=P([O-])([O-])OP(=O)([O-])[O-].[Fe+3].[Fe+3].[Fe+3].[Fe+3] [FePP, Iron-III-pyrophosphate] |  |  | 110.0 °C | 92.6 °C
O=P([O-])([O-])[O-].[Fe+3] [FeOP, Iron-III-orthophosphate] |  |  | 93.3 °C | 78.7 °C
